These are yes or no findings as the source states them, for the method shown. Binding seen in cells or lysates may run through a third protein. Here binding means that the protein was enriched with, or labelled near, the bait; the list need not be complete. Where a sequence is shown, tags or fusion partners need not be part of it.
T1: PolB1 from Sulfolobus acidocaldarius, C-terminally myc and hexahistidine-tagged (Sulfolobus acidocaldarius) (UniProt P95690)
T1 sequence: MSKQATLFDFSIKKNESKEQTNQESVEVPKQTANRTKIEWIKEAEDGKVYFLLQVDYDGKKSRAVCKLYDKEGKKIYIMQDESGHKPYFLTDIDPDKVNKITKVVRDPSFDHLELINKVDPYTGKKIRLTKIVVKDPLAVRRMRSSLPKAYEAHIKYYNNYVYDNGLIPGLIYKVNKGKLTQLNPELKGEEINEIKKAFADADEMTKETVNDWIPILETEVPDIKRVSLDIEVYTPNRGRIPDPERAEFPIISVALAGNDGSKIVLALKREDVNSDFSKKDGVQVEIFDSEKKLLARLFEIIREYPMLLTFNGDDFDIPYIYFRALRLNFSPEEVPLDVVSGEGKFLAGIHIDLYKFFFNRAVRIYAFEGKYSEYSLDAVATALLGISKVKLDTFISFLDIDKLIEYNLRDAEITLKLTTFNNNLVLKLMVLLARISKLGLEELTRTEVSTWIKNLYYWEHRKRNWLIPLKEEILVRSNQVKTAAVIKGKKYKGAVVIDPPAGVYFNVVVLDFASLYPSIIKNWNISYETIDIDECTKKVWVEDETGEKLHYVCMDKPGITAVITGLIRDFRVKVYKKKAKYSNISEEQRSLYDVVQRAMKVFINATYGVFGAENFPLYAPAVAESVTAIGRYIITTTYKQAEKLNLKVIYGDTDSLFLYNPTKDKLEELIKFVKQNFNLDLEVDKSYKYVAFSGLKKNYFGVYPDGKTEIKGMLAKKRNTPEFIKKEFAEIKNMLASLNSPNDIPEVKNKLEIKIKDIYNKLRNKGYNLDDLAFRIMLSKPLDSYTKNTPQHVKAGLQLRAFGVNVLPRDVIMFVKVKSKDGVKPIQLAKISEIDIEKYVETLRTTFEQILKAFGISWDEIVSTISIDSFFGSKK

B1: PolB1-binding protein 1 (PBP1) of Sulfolobus acidocaldarius, product of Saci_0746 (protein, UniProt Q4JAQ7 1-96)
chain: MSSTTRWTPKWKTVKIKLNDKDIDICFDEITKLYACPICAPECKKGNTPNYGAYFFSLDDLKEHVLSHNFSYWLRKRKTEEEEEEEEKVKAEEEEE
B2: PolB1-binding protein 2 (PBP2) of Sulfolobus acidocaldarius, product of Saci_1566 (protein, UniProt Q4J8K0 1-70)
chain: MPEDELEKAKKYFQNVVSVGEILAVRELKALGISDPEKVINKLIELGFIEKGEGCYNLIRERSKDSARNK

Target: T1, PolB1 from Sulfolobus acidocaldarius, C-terminally myc and hexahistidine-tagged (Sulfolobus acidocaldarius)
Experiment: affinity purification with mass spectrometry; lysate of S. acidocaldarius with chromosomally tagged PolB1 (control strain SacTK) passed through Ni-NTA and MonoQ; gel bands identified by LC-MS/MS

Row | Binder | binding
1 | B1 | binds
2 | B2 | binds
